According to publication doi:10.1101/469700:
Results are given in words; binding and its absence hold for the method and conditions named. In cells and extracts the contact can be indirect. Some binding calls cover weakened binding; strength is not graded here. Sequences can lack the tags named with a protein.

The chains behind the UniProt entries cited, without tags or fusion partners. Residues count along the entry.
UniProt Q3URE9, residues 28-606: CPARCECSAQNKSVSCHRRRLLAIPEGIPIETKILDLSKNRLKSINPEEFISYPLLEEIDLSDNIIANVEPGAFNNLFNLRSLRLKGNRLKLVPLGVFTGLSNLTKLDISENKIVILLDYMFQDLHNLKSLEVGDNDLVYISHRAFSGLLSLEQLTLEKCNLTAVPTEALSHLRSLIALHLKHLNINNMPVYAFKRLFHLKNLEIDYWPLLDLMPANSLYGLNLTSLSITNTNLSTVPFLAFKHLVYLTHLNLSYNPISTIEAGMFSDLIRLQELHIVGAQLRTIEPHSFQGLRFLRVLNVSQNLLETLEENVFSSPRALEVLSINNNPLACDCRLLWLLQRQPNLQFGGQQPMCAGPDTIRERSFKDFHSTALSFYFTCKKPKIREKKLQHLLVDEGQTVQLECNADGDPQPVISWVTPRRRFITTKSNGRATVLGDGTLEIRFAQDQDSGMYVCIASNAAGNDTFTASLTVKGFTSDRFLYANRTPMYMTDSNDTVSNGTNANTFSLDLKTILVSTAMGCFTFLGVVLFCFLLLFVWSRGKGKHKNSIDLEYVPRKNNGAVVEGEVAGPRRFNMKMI

Target: T1, murine TFF3-Fc (mouse) (UniProt Q62395)
T1 sequence: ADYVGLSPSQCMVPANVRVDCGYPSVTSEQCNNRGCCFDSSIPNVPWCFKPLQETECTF
Assay: co-IP

- binding: binds
Substance: Lingo2:Flag expressed in CHO cells (from UniProt Q3URE9 28-606) (receptor)
